PubChem BioAssay AID686937 – Drosophila RNAi Screening Center – 2013
The deposit covers about 23,000 reagents; below is a random part of those that have a named target and a result. 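Reduced-secretion tags in replicate 1 do not always agree with the z-scores; no criterion for assigning the tags was given.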 The numbers tell different reagents against one gene apart. Further read-outs or replicates are left out here. Not given: the amount of reagent.

Assay: 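Knock-downs that reduce output of a secreted reporter enzyme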 (primary screen)
Cell system: Drosophila S2 cells expressing secreted horseradish peroxidase
Knock-down reagent: long dsRNA against Drosophila genes
Time to read-out: about 5.5 days (5 days dsRNA, then 12 h reporter induction)
Conditions: reporter expression induced after 5 days of dsRNA, read 12 h later; inducer not stated
Detection: 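After 5 days of dsRNA and 12 h of reporter induction, medium peroxidase read by chemiluminescence and scored as per-plate z-score; higher values mean more reporter released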
Scale: z-score: higher = more reporter secreted into medium

Target gene,reagent no.,"z-score, replicate 1","z-score, replicate 2","z-score, replicate 3"
CG11007,1,-0.71,-0.63,
Mst57Dc,1,0.41,0.49,
CG9570,1,-0.21,0.32,
lili,1,0.11,0.27,
Grip84,1,0.02,0,
EloA,1,-0.34,0.03,
Had1,1,0.41,0.49,
CG6805,1,-0.07,0.18,
CG13096,1,0.13,-0.05,
Or24a,1,0.68,0.47,
CG6788,1,0.07,0.25,
mon2,1,-0.69,-0.59,
CG32112,1,0.1,0.38,
CG5535,1,0.38,0.33,
Tim23,1,0.09,0.16,
Tmem43,1,0.13,-0.07,
GstE8,1,0.34,0.48,
tw,1,0.49,0,
CG8478,1,0.36,0.53,
ath,1,-0.38,0.21,
CG33635,1,-0.8,0.26,
CG17777,1,0.06,0.22,
DCTN1-p150,1,0.26,0.27,
Rlip,1,0.21,0.2,
AcCoAS,1,0.44,0.31,0.28
AcCoAS,2,0.3,0.17,
AcCoAS,3,0.13,0.11,
CG13474,1,-0.72,-0.42,
Cyp4d21,1,0.05,0.3,
squ,1,0.4,0.23,
CG16865,1,-0.16,-0.1,
CG30114,1,0.75,0.49,
CG5326,1,0.35,-0.01,
CG5326,2,0.12,0.25,
CG13810,1,0.38,0.31,
CG13810,2,-0.42,-0.18,
Pdzd8,1,-0.26,0.45,
mmd,1,-2.37,-1.44,
mmd,2,0.21,0.29,
mmd,3,-0.12,0.13,
atk,1,-0.81,0.29,0.16
atk,2,0.33,0.31,
CG13912,1,0.29,0.3,
CG10062,1,0.11,0.06,
CG10062,2,-0.25,-0.26,
ste24b,1,0.08,0.3,
dsh,1,0.33,0.12,
Srp14,1,-0.17,0.05,
CHES-1-like,1,0.4,0.53,
CG12708,1,0.11,0.13,
Snoo,1,0.7,0.12,
Snoo,2,0.26,0.36,
Snoo,3,0.45,0.33,
prtp,1,0.34,-0.82,-1.07
prtp,2,0.21,-0.34,
IRSp53,1,-0.34,-0.04,

7 entries from above, set out differently:
CG13912 → z-score, replicate 1: 0.29; z-score, replicate 2: 0.3
CG10062 #1 → z-score, replicate 1: 0.11; z-score, replicate 2: 0.06
CG10062 #2 → z-score, replicate 1: -0.25; z-score, replicate 2: -0.26
ste24b → z-score, replicate 1: 0.08; z-score, replicate 2: 0.3
dsh → z-score, replicate 1: 0.33; z-score, replicate 2: 0.12
Srp14 → z-score, replicate 1: -0.17; z-score, replicate 2: 0.05
CHES-1-like → z-score, replicate 1: 0.4; z-score, replicate 2: 0.53
